According to patent US20220041718A1 (AUTOLUS, published 2022):
Substitutions are numbered along the chain they refer to. Names and notes keep the numbering of the source. These are yes or no findings as the source states them, for the method shown. Some results given as binding are weak or reduced against the parent protein; the word gives no strength.

B1: hJovi-1 variant IgG, VH T28K, Y32F, A100N; VL unmutated (antibody, V domains shown)
VH: QVQLVQSGAEVKKPGASVKVSCKASGYKFTGFVMHWVRQAPGQGLEWMGFINPYNDDIQSNERFRGRVTMTRDTSISTAYMELSRLRSDDTAVYYCARGNGYNFDGAYRFFDFWGQGTMVTVSS
VL: DIVMTQSPLSLPVTPGEPASISCRSSQRLVHSNGNTYLHWYLQKPGQSPRLLIYRVSNRFPGVPDRFSGSGSGTDFTLKISRVEAEDVGVYYCSQSTHVPYTFGQGTKLEIK
notes: IgG format; also called anti-TRBC2 triple mutant
B2: hJovi-1 variant IgG, VH G31R, Y32F, A100N; VL unmutated (antibody, V domains shown)
VH: B1 VH with K28T, G31R
VL: B1 VL
notes: IgG format
B3: hJovi-1 variant IgG, VH G31S, T28K, Y32F, A100N; VL unmutated (antibody, V domains shown)
VH: B1 VH with G31S
VL: B1 VL
notes: IgG format
B4: hJovi-1 variant IgG, VH N103E, T28K, Y32F, A100N; VL N35M (antibody, V domains shown)
VH: B1 VH with N103E
VL: B1 VL with N35M
notes: IgG format
B5: hJovi-1 variant IgG, VH N103F, T28K, Y32F, A100N; VL N35F (antibody, V domains shown)
VH: B1 VH with N103F
VL: B1 VL with N35F
notes: IgG format
B6: hJovi-1 variant IgG, VH N103F, T28K, Y32F, A100N; VL N35M (antibody, V domains shown)
VH: B1 VH with N103F
VL: B1 VL with N35M
notes: IgG format
B7: hJovi-1 variant IgG, VH N103F, T28K, Y32F, A100N; VL N35Y (antibody, V domains shown)
VH: B1 VH with N103F
VL: B1 VL with N35Y
notes: IgG format
B8: hJovi-1 variant IgG, VH N103L, T28K, Y32F, A100N; VL N35F (antibody, V domains shown)
VH: B1 VH with N103L
VL: B1 VL with N35F
notes: IgG format
B9: hJovi-1 variant IgG, VH N103L, T28K, Y32F, A100N; VL N35K (antibody, V domains shown)
VH: B1 VH with N103L
VL: B1 VL with N35K
notes: IgG format
B10: hJovi-1 variant IgG, VH N103L, T28K, Y32F, A100N; VL N35M (antibody, V domains shown)
VH: B1 VH with N103L
VL: B1 VL with N35M
notes: IgG format
B11: hJovi-1 variant IgG, VH N103L, T28K, Y32F, A100N; VL N35R (antibody, V domains shown)
VH: B1 VH with N103L
VL: B1 VL with N35R
notes: IgG format
B12: hJovi-1 variant IgG, VH N103L, T28K, Y32F, A100N; VL N35Y (antibody, V domains shown)
VH: B1 VH with N103L
VL: B1 VL with N35Y
notes: IgG format
B13: hJovi-1 variant IgG, VH N103M, T28K, Y32F, A100N; VL N35F (antibody, V domains shown)
VH: B1 VH with N103M
VL: B1 VL with N35F
notes: IgG format
B14: hJovi-1 variant IgG, VH N103S, T28K, Y32F, A100N; VL N35F (antibody, V domains shown)
VH: B1 VH with N103S
VL: B1 VL with N35F
notes: IgG format
B15: hJovi-1 variant IgG, VH N103S, T28K, Y32F, A100N; VL N35K (antibody, V domains shown)
VH: B1 VH with N103S
VL: B1 VL with N35K
notes: IgG format
B16: hJovi-1 variant IgG, VH N103S, T28K, Y32F, A100N; VL N35M (antibody, V domains shown)
VH: B1 VH with N103S
VL: B1 VL with N35M
notes: IgG format
B17: hJovi-1 variant IgG, VH N103S, T28K, Y32F, A100N; VL N35R (antibody, V domains shown)
VH: B1 VH with N103S
VL: B1 VL with N35R
notes: IgG format
B18: hJovi-1 variant IgG, VH N103S, T28K, Y32F, A100N; VL N35Y (antibody, V domains shown)
VH: B1 VH with N103S
VL: B1 VL with N35Y
notes: IgG format
B19: hJovi-1 variant IgG, VH N103W, T28K, Y32F, A100N; VL N35F (antibody, V domains shown)
VH: B1 VH with N103W
VL: B1 VL with N35F
notes: IgG format
B20: hJovi-1 variant IgG, VH N103W, T28K, Y32F, A100N; VL N35K (antibody, V domains shown)
VH: B1 VH with N103W
VL: B1 VL with N35K
notes: IgG format
B21: hJovi-1 variant IgG, VH N103W, T28K, Y32F, A100N; VL N35M (antibody, V domains shown)
VH: B1 VH with N103W
VL: B1 VL with N35M
notes: IgG format
B22: hJovi-1 variant IgG, VH N103W, T28K, Y32F, A100N; VL N35R (antibody, V domains shown)
VH: B1 VH with N103W
VL: B1 VL with N35R
notes: IgG format
B23: hJovi-1 variant IgG, VH T28K Y32F A100N; VL R55K (antibody, V domains shown)
VH: B1 VH
VL: B1 VL with R55K
notes: IgG format
B24: hJovi-1 variant IgG, VH T28K, G31R, Y32F, A100N; VL unmutated (antibody, V domains shown)
VH: B1 VH with G31R
VL: B1 VL
notes: IgG format
B25: hJovi-1 variant IgG, VH T28K, Y32F, A100N, A107S; VL unmutated (antibody, V domains shown)
VH: B1 VH with A107S
VL: B1 VL
notes: IgG format
B26: hJovi-1 variant IgG, VH T28K, Y32F, A100N, N103A; VL unmutated (antibody, V domains shown)
VH: B1 VH with N103A
VL: B1 VL
notes: IgG format
B27: hJovi-1 variant IgG, VH T28K, Y32F, A100N, N103E; VL unmutated (antibody, V domains shown)
VH: B1 VH with N103E
VL: B1 VL
notes: IgG format
B28: hJovi-1 variant IgG, VH T28K, Y32F, A100N, N103F; VL N35K (antibody, V domains shown)
VH: B1 VH with N103F
VL: B1 VL with N35K
notes: IgG format
B29: hJovi-1 variant IgG, VH T28K, Y32F, A100N, N103F; VL unmutated (antibody, V domains shown)
VH: B1 VH with N103F
VL: B1 VL
notes: IgG format
B30: hJovi-1 variant IgG, VH T28K, Y32F, A100N, N103H; VL unmutated (antibody, V domains shown)
VH: B1 VH with N103H
VL: B1 VL
notes: IgG format
B31: hJovi-1 variant IgG, VH T28K, Y32F, A100N, N103L; VL unmutated (antibody, V domains shown)
VH: B1 VH with N103L
VL: B1 VL
notes: IgG format
B32: hJovi-1 variant IgG, VH T28K, Y32F, A100N, N103M; VL N35M (antibody, V domains shown)
VH: B1 VH with N103M
VL: B1 VL with N35M
notes: IgG format
B33: hJovi-1 variant IgG, VH T28K, Y32F, A100N, N103M; VL N35R (antibody, V domains shown)
VH: B1 VH with N103M
VL: B1 VL with N35R
notes: IgG format
B34: hJovi-1 variant IgG, VH T28K, Y32F, A100N, N103M; VL N35Y (antibody, V domains shown)
VH: B1 VH with N103M
VL: B1 VL with N35Y
notes: IgG format
B35: hJovi-1 variant IgG, VH T28K, Y32F, A100N, N103M; VL unmutated (antibody, V domains shown)
VH: B1 VH with N103M
VL: B1 VL
notes: IgG format
B36: hJovi-1 variant IgG, VH T28K, Y32F, A100N, N103Q; VL unmutated (antibody, V domains shown)
VH: B1 VH with N103Q
VL: B1 VL
notes: IgG format
B37: hJovi-1 variant IgG, VH T28K, Y32F, A100N, N103S; VL unmutated (antibody, V domains shown)
VH: B1 VH with N103S
VL: B1 VL
notes: IgG format
B38: hJovi-1 variant IgG, VH T28K, Y32F, A100N, N103W; VL unmutated (antibody, V domains shown)
VH: B1 VH with N103W
VL: B1 VL
notes: IgG format
B39: hJovi-1 variant IgG, VH T28K, Y32F, A100N, N103Y; VL unmutated (antibody, V domains shown)
VH: B1 VH with N103Y
VL: B1 VL
notes: IgG format
B40: hJovi-1 variant IgG, VH T28K, Y32F, A100N, Y102F, N103M; VL N35F (antibody, V domains shown)
VH: B1 VH with Y102F, N103M
VL: B1 VL with N35F
notes: IgG format
B41: hJovi-1 variant IgG, VH T28K, Y32F, A100N, Y102F, N103M; VL N35K (antibody, V domains shown)
VH: B1 VH with Y102F, N103M
VL: B1 VL with N35K
notes: IgG format
B42: hJovi-1 variant IgG, VH T28K, Y32F, A100N, Y102F, N103M; VL N35R (antibody, V domains shown)
VH: B1 VH with Y102F, N103M
VL: B1 VL with N35R
notes: IgG format
B43: hJovi-1 variant IgG, VH T28K, Y32F, A100N, Y102F; VL N35R (antibody, V domains shown)
VH: B1 VH with Y102F
VL: B1 VL with N35R
notes: IgG format
B44: hJovi-1 variant IgG, VH T28K, Y32F, A100N, Y102F; VL unmutated (antibody, V domains shown)
VH: B1 VH with Y102F
VL: B1 VL
notes: IgG format
B45: hJovi-1 variant IgG, VH T28K, Y32F, A100N, Y102L, N103M; VL N35R (antibody, V domains shown)
VH: B1 VH with Y102L, N103M
VL: B1 VL with N35R
notes: IgG format
B46: hJovi-1 variant IgG, VH T28K, Y32F, A100N, Y102L, N103W; VL N35K (antibody, V domains shown)
VH: B1 VH with Y102L, N103W
VL: B1 VL with N35K
notes: IgG format
B47: hJovi-1 variant IgG, VH T28K, Y32F, A100N, Y102L, N103W; VL N35R (antibody, V domains shown)
VH: B1 VH with Y102L, N103W
VL: B1 VL with N35R
notes: IgG format
B48: hJovi-1 variant IgG, VH T28K, Y32F, A100N; VL N35F (antibody, V domains shown)
VH: B1 VH
VL: B1 VL with N35F
notes: IgG format

Biological target: Recombinant purified TRBC2 (human)
Assay: SPR

binding, binds:
B1
B2
B3
B4
B5
B6
B7
B8
B9
B10
B11
B12
B13
B14
B15
B16
B17
B18
B19
B20
B21
B22
B23
B24
B25
B26
B27
B28
B29
B30
B31
B32
B33
B34
B35
B36
B37
B38
B39
B40
B41
B42
B43
B44
B45
B46
B47
B48
